From paper PMC10071617
No constants are given. Whether binding was seen depends on the method and setting. Binding seen in cells or lysates may run through a third protein. Some binding calls cover weakened binding; strength is not graded here. For some assays here: Tags and fused reporters may be left off the sequences shown.

The chains behind the UniProt entries cited, without tags or fusion partners.
UniProt P06241: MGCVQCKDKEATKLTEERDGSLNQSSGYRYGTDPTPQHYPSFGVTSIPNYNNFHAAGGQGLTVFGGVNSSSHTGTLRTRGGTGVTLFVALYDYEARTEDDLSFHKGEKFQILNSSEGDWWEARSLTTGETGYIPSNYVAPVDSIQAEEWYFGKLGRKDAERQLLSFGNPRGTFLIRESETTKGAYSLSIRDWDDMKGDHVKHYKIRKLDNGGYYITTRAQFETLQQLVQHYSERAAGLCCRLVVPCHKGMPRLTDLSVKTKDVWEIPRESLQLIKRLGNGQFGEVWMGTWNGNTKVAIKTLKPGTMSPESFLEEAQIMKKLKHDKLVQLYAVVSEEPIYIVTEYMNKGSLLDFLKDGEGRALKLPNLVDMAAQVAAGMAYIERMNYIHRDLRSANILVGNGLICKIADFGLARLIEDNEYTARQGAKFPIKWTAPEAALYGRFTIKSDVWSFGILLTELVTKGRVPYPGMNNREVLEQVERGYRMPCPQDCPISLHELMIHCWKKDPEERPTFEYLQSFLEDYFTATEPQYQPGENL

Key:
[1] = molecular target: T1, TOPK (endogenous, MGC803 cells) (human (endogenous in MGC803)) (UniProt Q96KB5); assay: co-IP; immunoprecipitation with anti-TOPK antibody from MGC803 cells, endogenous proteins; CoIP kit (Thermo Fisher 26147)
T1 sequence: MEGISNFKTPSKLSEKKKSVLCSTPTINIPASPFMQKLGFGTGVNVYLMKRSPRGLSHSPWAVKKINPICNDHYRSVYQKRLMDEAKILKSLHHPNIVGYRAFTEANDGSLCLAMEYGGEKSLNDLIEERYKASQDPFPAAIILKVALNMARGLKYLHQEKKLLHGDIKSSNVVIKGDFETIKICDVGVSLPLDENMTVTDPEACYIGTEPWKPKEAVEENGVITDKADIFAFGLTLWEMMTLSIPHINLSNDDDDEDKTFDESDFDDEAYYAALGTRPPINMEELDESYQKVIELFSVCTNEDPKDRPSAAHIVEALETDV

[2] = molecular target: T2, His-TOPK (T-LAK cell-originated protein kinase, wild type) (UniProt Q96KB5); assay: pull-down; His-TOPK held on Ni-NTA agarose, incubated with lysate of MGC803 cells (FYN high expression cell line); endogenous FYN detected; only the target purified
T2 sequence: T1 sequence

- binding [1]: binds
- binding [2]: binds
Substance: FYN (endogenous, MGC803 cells) (from UniProt P06241 1-537) (enzyme)
